A short description of this assay: qHTS Assay for Lipid Storage Modulators in Drosophila S3 Cells.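 As to cell number change: cells counted by Cell Tracker Red CMTPX staining in the red channel.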 Particulars: BODIPY lipid droplet fluorescence, 18-24 h; for cell number change: measured here: cell count max response, cells fed with added oleic acid. The procedure, abridged: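 Laser-scanning cytometry quantifies lipid droplet accumulation (500–530 nm total intensity; droplet/cell object ratio) in oleic acid-fed (400 uM added) Drosophila S3 cells treated with a concentration series. 20 uM Triacsin C defined 100% inhibition.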
On the technique in general: qHTS replaces the single test concentration by a dilution series.

[1] abbreviates: measured here: lipid fluorescence (Fed channel) AC50, cells fed with added oleic acid.
Where [2] appears, read: measured here: cell number channel AC50, cells fed with added oleic acid.

The other results are listed elsewhere or left out. Further columns of the screen follow, without active or inactive calls. Most of these compounds were active or inconclusive in the main read-out, so they are no random draw. Words in brackets tell the shape of the fitted curve; partial curves, single points and poor fits give uncertain potencies.

The AC50 is the concentration giving half of the maximal activity seen. With `COc1ccc(CN2C(=O)NC3(CCCCCC3)C2=O)cc1F`, the cell number change amounted to 5.1%. Also, the AC50 under setting [1] was 1.84 µM [rising, full curve, poor fit].
`OCn1ncn(-c2ccccc2)c1=S`: the cell number change was determined as 17.8%. Besides, the AC50 under setting [1] is 0.13 µM [falling, full curve, poor fit].
As to `CCNc1nc(CN2CCCCC2)nc2scc(-c3ccccc3)c12`, the cell number change is -6.23%. Moreover, the AC50 under setting [1] was 29.1 µM [falling, single point].
In the case of `Cc1ccc(S(=O)(=O)Cn2cnnn2)cc1`, the cell number change was -2.42%.
`CCCCNC(=S)NNC(=O)C1=NN(c2cc(C)ccc2C)C(=O)CC1`: the AC50 under setting [1] was 2.06 µM [falling, partial curve].
As for `CC1CCCCC1NC(=O)COC(=O)COc1ccccc1Cl` (stereo not drawn), the AC50 under setting [2] is 0.58 µM [rising, single point].
In the case of `Cc1cc2[nH]c(=O)c(=O)[nH]c2cc1S(=O)(=O)NCc1ccccc1`, the cell number change was -7.55%. In addition, under setting [1], the AC50 was 18.4 µM [rising, partial curve].
Take `C(=N\c1nc2ccccc2n1CCN1CCCCC1)/c1ccc2c(c1)OCO2`: the cell number change worked out at 40.3%. The AC50 under setting [2] is 20.6 µM [rising, single point].
On to `Cc1ccc(CSCC(=O)N2CCCC2)cc1`, for which the cell number change was found to be 11.6%. The AC50 under setting [1] is 0.231 µM [falling, full curve, poor fit].
`Cc1ccc2nc(Nc3nc(=O)c4ccccc4n3C)nc(C)c2c1`: the cell number change was -13%. Under setting [1], the AC50 was 2.31 µM [rising, full curve, poor fit].
Regarding `FC(F)Oc1ccc(-c2csc(NNC3=NCCCCC3)n2)cc1`, the cell number change was -55.5%. In addition, the AC50 under setting [2] was 32.6 µM [falling, single point]. Moreover, the AC50 under setting [1] was 29.1 µM [falling, partial curve].
With `O=C(CN1CCC(NC(=O)c2ccccc2)CC1)NCc1ccccc1F`, the cell number change was 16%. Also, under setting [1], the AC50 was 29.1 µM [rising, single point].
On to `CCCCN(CC)CCNC(=O)c1cc2c(-c3ccc(Cl)cc3)nn(C)c2s1`, for which the cell number change was -31.6%. Also, the concentration at half-maximal activity (AC50) under setting [2] was 16.4 µM [falling, single point].
For the molecule `COc1cc(C(=O)NCCCC2CCCC2)ccc1OC1CCN(C(C)=O)CC1`, the cell number change is -5.25%. Moreover, the AC50 under setting [1] is 4.11 µM [rising, single point].
Take `N#C/C(=C1\CCCN1)c1nc(-c2ccccc2)cs1`: the cell number change is 7.67%.
For the molecule `Cc1ccc(C)c(S(=O)(=O)N2CCN(C(=O)c3n[nH]c(=O)c4ccccc34)CC2)c1`, the cell number change is 0.205%.
Consider `COC(=O)CNc1nc(-c2ccccc2F)nc2ccccc12`, for which the cell number change stood at 31.7%. The AC50 under setting [2] is 1.03 µM [rising, full curve, poor fit]. Further, the AC50 under setting [1] is 5.8 µM [rising, full curve].
With `O=C(Nc1ccc(Nc2ccccc2)cc1)c1ccco1`, the cell number change came to 204%. For the same molecule, the AC50 under setting [2] was 20.6 µM [rising, partial curve].
For the molecule `O=C(c1ccc(CS(=O)Cc2ccc(Cl)cc2)o1)N1CCN(c2ccc(F)cc2)CC1` (stereo not drawn), under setting [1], the AC50 is 0.146 µM [falling, full curve, poor fit].
As to `CC(C)(C)OC(=O)n1cc(/C=N/NC(=O)c2ccco2)c2ccccc21`, the cell number change was 29.3%. Also, the AC50 under setting [1] was 35.5 µM [falling, single point].
With `COc1ccc(S(=O)(=O)N(Cc2ccc(OC)c(OC)c2)Cc2ccco2)cc1`, the cell number change is -5.76%. Moreover, the AC50 under setting [1] was 1.16 µM [rising, full curve, poor fit].
For `Cc1ncc(CO)c(/C=N/NC(=O)c2ccc(Br)cc2)c1O`, the cell number change was found to be 5.06%. Under setting [1], the AC50 was 29.1 µM [falling, single point].
For the molecule `Cc1cc(OCC(=O)NCc2ccncc2)ccc1Cl`, the cell number change came to 9.82%. For the same molecule, under setting [1], the AC50 is 4.61 µM [rising, full curve, poor fit].
On to `CN(C)CCCN(C(=O)c1ccc(S(=O)(=O)N2CCc3ccccc3C2)cc1)c1nc2c(F)cc(F)cc2s1`, for which the cell number change is -79.1%. Besides, the AC50 under setting [2] is 18.4 µM [falling, single point].
Take `O=C(OCC1OC2OC3(CCCCC3)OC2C2OC3(CCCCC3)OC12)c1ccccc1` (stereo not drawn): the cell number change stood at 36.8%. The AC50 under setting [2] was 10.3 µM [rising, partial curve]. In addition, the AC50 under setting [1] was 13 µM [rising, partial curve].
On to `Cc1cc(NC(=O)Nc2cccs2)no1`, for which the cell number change amounted to 137%. The AC50 under setting [2] was 18.4 µM [rising, partial curve]. For the same molecule, the AC50 under setting [1] was 3.66 µM [falling, partial curve].
With `Oc1[nH]c(=S)sc1C=C1N=c2ccccc2=N1`, the cell number change was -57.3%. Under setting [2], the AC50 is 18.4 µM [falling, partial curve]. Further, the AC50 under setting [1] is 23.1 µM [falling, single point].
With `Cc1cc(NC(=O)CN2C(=O)NC3(CCCCCC3)C2=O)ccc1Br`, the cell number change is -17.4%. Also, the AC50 under setting [2] is 1.84 µM [falling, partial curve, poor fit]. Further, under setting [1], the AC50 was 1.16 µM [falling, partial curve].
`CN(Cc1ccccc1)C(=O)c1ccc(NC(=O)Cc2cccc(NC(=O)C3CCN(C(=O)C4CCCC4)CC3)c2)cc1`: the cell number change is -16%.
For `CC1=C(C(=O)Nc2ccc(C)cc2C)C(c2ccc(C)o2)NC(=O)N1` (stereo not drawn), the AC50 under setting [2] is 1.84 µM [rising, partial curve].
Turning to `CCN(CC)S(=O)(=O)c1cccc(C(=O)N[C@H](C(=O)OCC(N)=O)C(C)C)c1`, the cell number change was determined as 16.4%. The AC50 under setting [1] was 29.1 µM [falling, single point].
As for `CCc1ccccc1N(C)S(=O)(=O)c1ccc2[nH]cc(C(=O)O)c(=O)c2c1`, the AC50 by setting is: under setting [2], 0.231 µM [rising, full curve, poor fit]; under setting [1], 4.11 µM [rising, full curve].
In the case of `O=C(Nc1cccc(O)c1)c1ccc(Br)c(S(=O)(=O)N2CCCCC2)c1`, the cell number change is -10.6%. Also, the AC50 under setting [2] is 3.66 µM [falling, partial curve, poor fit]. Further, the AC50 under setting [1] was 0.164 µM [falling, partial curve].
For `Nc1ncnc2nc(SCc3ccc(Cl)cc3Cl)[nH]c12`, the cell number change is -22.2%. Further, the concentration at half-maximal activity (AC50) under setting [2] was 6.51 µM [rising, single point]. Also, the AC50 under setting [1] is 6.51 µM [rising, single point].
With `COc1cccc(NC(=S)NC(=O)c2c(Cl)c(C)nn2C)c1`, the cell number change was determined as 17.9%. In addition, under setting [1], the AC50 was 29.1 µM [rising, single point].
`O=C(O)C1CCN(S(=O)(=O)c2cccc3nonc23)CC1`: the AC50 under setting [1] was 29.1 µM [rising, single point].
On to `CCOC(=O)c1nncc(-c2ccccc2)n1`, for which the cell number change was 13.5%. Moreover, the AC50 under setting [1] was 23.1 µM [rising, single point].
Regarding `C=CCc1ccccc1OCC(O)CN1CCN(c2ccc(C)cc2)CC1` (stereo not drawn), the cell number change is -68.9%. Besides, the AC50 under setting [2] was 29.1 µM [falling, single point]. The AC50 under setting [1] is 29.1 µM [falling, partial curve, poor fit].
With `CCNC(=O)COc1ccc(-c2ccccc2)cc1`, the cell number change turned out to be 39.6%. The AC50 under setting [2] was 29.1 µM [rising, single point].
Turning to `c1ccc(NCC2OCc3ccccc3CO2)cc1`, the cell number change amounted to 11.5%. Besides, the AC50 under setting [1] is 16.4 µM [rising, partial curve].
As for `CC1(C)CC(=O)C(C2(O)C(=O)N(Cc3ccccc3)c3ccccc32)CO1` (stereo not drawn), the cell number change turned out to be 8.48%. In addition, the AC50 under setting [1] was 29.1 µM [rising, single point].
Regarding `O=C(O)CCc1ccc(-c2ccccc2)n1-c1cccc(O)c1`, the cell number change was -11.8%. Besides, the AC50 under setting [2] was 0.291 µM [falling, full curve, poor fit].
Turning to `CC1(C)CC(=O)C=C(NCc2ccco2)C1`, the cell number change is -19.2%. For the same molecule, the AC50 under setting [1] is 23.1 µM [falling, partial curve].
Regarding `COc1cc2c(c3oc(-c4ccccc4)cc(=O)c13)C=CC(C)(C)O2`, the cell number change was -22%. Besides, the AC50 under setting [1] was 29.1 µM [falling, single point].
Consider `Cc1ccccc1C(=O)c1c[nH]c(C(=O)NCc2cccs2)c1`, for which the cell number change was 106%.
Turning to `Cc1ccc(N2CCN(C(=O)N3CCCC3)CC2)cc1C`, the cell number change is 32.4%. Under setting [2], the AC50 is 6.51 µM [rising, full curve, poor fit]. Also, the AC50 under setting [1] was 29.1 µM [falling, single point].
With `O=C(COC(=O)c1cc(-c2ccc(F)cc2)nc2ccccc12)NCC1CCCO1` (stereo not drawn), the cell number change amounted to 73.9%.
`O=C(O)CSc1nnc(-c2cccc(S(=O)(=O)N3CCCCC3)c2)o1`: the cell number change was -17.7%. Under setting [1], the AC50 is 29.1 µM [falling, single point].
`COCCOC(=O)c1[nH]c2c(c1C)C(=O)CC(c1cc(OC)ccc1OC)C2` (stereo not drawn): the AC50 under setting [1] is 1.46 µM [rising, partial curve].
Consider `O=C1OCCC1S(=O)(=O)c1ccc2ccccc2c1` (stereo not drawn), for which the cell number change was determined as 0.721%. Also, the AC50 under setting [1] was 2.59 µM [rising, single point].
Regarding `CCCNC(=O)C(Cc1ccccc1F)NC(=O)c1ccccn1` (stereo not drawn), the cell number change stood at 2.41%. Moreover, the AC50 under setting [1] was 29.1 µM [rising, single point].
On to `CCc1ccc2nc(N(CCCN(C)C)C(=O)c3ccc(S(=O)(=O)N4CCCC4)cc3)sc2c1`, for which the cell number change amounted to 37.5%. Also, the AC50 under setting [2] was 14.6 µM [rising, partial curve, poor fit]. In addition, under setting [1], the concentration at half-maximal activity (AC50) was 11.6 µM [rising, partial curve].
For `C=CC#CC1(O)CC(C)N(C)CC1C` (stereo not drawn), the cell number change was -16.6%.
In the case of `Cc1cccc(-c2noc(CCC(=O)NC3CCCC3)n2)c1`, the cell number change stood at 32.1%. Besides, the AC50 under setting [2] was 0.92 µM [rising, full curve, poor fit].
In the case of `Cc1cccnc1NC(=O)CCC(=O)c1cccs1`, the cell number change is 32.7%. Under setting [2], the AC50 is 0.231 µM [rising, full curve, poor fit]. Moreover, the AC50 under setting [1] was 1.03 µM [rising, partial curve].
In the case of `Cc1cc(C)c(NC(=O)c2cccc3c2C(=O)N(C2CCCCC2)C3)c(C)c1`, the cell number change was 0.59%. Moreover, the AC50 under setting [1] was 29.1 µM [falling, single point].
In the case of `CCOc1c(Cl)cc(C(=O)Nc2cccc(C(=O)O)c2)cc1Cl`, the cell number change was determined as 4.83%. Further, under setting [1], the AC50 was 6.51 µM [falling, single point].
As for `COc1cccc(/C=C2/C(=O)NN(c3ccc(C)c(C)c3)C2=O)c1`, the cell number change is 11.3%. The AC50 under setting [1] is 3.66 µM [falling, full curve, poor fit].
For the molecule `COc1cc(/C=C(\C#N)c2nc3ccc(C)cc3[nH]2)cc([N+](=O)[O-])c1O`, the cell number change is -42.4%. For the same molecule, the AC50 under setting [2] is 29.1 µM [falling, single point]. Besides, the AC50 under setting [1] was 29.1 µM [falling, single point].

The values above are taken from PubChem BioAssay AID2685 (National Center for Advancing Translational Sciences (NCATS), 2010).
